# Test results as given in publication PMC3887213.
# Protein sequences, listed by entry. Tags and fused reporters are not part of them. Lines headed by an entry give the natural chain unless they say otherwise; changes in a name come on top. Chains listed by the source or under a name are the forms on record and can include a tag or linker. Residues count along the entry.
# UniProt Q5S007: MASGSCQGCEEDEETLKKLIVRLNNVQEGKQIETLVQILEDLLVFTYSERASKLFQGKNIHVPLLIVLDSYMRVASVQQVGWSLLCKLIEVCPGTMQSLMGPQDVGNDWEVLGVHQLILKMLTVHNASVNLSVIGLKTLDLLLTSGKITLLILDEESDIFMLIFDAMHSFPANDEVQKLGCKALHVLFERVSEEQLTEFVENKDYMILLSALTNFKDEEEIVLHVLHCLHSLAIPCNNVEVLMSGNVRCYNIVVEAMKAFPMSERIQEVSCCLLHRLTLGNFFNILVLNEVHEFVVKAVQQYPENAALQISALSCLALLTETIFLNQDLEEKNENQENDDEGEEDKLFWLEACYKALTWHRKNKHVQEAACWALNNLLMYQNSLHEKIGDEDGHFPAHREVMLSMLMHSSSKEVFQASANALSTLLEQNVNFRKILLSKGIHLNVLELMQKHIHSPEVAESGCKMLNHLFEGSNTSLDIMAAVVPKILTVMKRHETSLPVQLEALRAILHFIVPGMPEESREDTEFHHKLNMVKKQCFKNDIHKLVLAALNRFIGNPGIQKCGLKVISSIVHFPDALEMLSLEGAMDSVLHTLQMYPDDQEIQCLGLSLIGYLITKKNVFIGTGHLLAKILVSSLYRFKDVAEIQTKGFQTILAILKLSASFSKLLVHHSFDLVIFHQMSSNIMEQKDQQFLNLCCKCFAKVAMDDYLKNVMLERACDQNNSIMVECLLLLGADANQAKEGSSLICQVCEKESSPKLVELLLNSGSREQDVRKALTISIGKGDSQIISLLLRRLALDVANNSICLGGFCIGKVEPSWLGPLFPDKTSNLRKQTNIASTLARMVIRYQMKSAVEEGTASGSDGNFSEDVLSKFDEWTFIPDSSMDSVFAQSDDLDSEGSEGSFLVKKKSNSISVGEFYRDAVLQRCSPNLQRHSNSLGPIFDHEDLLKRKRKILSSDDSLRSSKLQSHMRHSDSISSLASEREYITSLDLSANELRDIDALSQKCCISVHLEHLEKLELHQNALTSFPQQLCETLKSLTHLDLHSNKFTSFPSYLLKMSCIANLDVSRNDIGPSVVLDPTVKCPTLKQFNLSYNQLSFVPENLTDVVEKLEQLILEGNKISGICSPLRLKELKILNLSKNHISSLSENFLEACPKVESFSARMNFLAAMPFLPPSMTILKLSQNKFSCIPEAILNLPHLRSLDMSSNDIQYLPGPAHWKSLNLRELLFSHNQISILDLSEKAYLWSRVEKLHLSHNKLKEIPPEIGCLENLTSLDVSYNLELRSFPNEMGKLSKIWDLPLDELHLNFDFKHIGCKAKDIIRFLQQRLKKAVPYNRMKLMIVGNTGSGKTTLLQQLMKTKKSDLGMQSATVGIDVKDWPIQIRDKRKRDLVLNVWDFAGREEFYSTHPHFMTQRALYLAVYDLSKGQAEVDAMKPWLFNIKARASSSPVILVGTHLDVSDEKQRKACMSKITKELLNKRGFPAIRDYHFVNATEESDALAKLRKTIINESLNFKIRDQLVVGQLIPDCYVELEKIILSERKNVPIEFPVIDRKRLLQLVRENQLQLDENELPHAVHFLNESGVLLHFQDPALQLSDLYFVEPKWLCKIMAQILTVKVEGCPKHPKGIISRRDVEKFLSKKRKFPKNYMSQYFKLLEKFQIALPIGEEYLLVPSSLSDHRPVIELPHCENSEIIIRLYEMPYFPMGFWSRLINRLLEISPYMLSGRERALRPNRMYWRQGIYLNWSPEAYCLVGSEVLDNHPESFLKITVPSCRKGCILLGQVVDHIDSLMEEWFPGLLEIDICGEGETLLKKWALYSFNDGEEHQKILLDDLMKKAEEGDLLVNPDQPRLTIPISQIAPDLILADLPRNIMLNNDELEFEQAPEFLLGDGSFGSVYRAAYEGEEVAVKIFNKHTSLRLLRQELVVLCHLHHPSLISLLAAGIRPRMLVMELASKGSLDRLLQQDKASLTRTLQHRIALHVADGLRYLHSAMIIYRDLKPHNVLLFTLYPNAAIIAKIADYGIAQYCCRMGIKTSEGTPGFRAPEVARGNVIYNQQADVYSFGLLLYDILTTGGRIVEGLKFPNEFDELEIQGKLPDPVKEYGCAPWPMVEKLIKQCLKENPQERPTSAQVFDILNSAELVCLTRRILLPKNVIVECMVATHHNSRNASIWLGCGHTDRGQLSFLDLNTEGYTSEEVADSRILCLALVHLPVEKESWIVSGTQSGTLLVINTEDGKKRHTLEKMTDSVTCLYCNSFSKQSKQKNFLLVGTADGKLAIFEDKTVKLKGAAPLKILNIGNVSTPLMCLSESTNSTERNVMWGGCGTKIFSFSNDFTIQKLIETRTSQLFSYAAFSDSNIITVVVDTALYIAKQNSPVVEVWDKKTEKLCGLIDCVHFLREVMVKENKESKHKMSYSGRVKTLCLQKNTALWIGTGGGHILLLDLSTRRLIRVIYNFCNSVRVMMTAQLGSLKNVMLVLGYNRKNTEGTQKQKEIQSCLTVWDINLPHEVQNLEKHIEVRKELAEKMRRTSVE
# FLAG-tagged TUBB4 C terminus (P04350, residues 317-444): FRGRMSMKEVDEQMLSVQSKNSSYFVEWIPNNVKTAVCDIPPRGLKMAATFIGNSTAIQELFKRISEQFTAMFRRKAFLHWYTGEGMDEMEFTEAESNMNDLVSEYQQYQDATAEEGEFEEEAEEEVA
# TUBB4 A364D C terminus, GAL4-AD prey (P04350, form named): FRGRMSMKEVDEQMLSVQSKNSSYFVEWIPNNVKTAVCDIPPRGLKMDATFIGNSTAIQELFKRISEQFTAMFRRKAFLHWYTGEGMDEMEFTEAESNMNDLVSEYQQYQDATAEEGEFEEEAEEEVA
# TUBB4 A364E C terminus, GAL4-AD prey (P04350, form named): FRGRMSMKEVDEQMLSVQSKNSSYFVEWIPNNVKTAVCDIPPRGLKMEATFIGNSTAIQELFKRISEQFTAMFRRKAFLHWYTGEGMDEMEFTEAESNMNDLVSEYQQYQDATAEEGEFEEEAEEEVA
# TUBB4 A364S C terminus, GAL4-AD prey (P04350, form named): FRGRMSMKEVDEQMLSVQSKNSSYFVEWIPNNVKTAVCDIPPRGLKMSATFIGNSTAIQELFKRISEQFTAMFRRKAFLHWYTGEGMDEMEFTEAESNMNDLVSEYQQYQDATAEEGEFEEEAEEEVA
# UniProt Q9BQE3: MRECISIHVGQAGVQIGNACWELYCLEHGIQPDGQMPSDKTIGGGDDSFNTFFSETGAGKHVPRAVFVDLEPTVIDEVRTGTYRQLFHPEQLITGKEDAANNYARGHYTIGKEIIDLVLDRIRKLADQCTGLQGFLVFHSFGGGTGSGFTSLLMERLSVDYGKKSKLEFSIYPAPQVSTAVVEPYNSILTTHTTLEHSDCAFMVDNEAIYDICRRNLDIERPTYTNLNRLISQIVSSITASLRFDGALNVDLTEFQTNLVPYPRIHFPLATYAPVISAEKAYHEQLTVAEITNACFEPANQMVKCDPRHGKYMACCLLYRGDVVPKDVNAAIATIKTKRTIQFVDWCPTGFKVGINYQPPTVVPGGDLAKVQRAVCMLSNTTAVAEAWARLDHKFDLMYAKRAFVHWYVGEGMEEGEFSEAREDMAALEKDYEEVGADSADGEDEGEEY
# UniProt P68366: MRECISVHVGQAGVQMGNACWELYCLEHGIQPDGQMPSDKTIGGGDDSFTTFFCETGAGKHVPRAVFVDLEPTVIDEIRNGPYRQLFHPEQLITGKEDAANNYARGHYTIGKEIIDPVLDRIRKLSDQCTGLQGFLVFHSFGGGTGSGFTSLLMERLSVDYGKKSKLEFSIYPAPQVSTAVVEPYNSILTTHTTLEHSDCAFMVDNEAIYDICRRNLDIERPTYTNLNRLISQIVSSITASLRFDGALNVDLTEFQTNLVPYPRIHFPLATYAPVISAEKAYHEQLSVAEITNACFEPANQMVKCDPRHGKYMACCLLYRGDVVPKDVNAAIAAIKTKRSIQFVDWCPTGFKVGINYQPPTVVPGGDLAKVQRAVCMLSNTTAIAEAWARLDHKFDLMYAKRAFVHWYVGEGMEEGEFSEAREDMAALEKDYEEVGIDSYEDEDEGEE
# TUBB1 C terminus (Phe-317 to the stop codon), GAL4-AD prey (Q9H4B7, residues 317-451): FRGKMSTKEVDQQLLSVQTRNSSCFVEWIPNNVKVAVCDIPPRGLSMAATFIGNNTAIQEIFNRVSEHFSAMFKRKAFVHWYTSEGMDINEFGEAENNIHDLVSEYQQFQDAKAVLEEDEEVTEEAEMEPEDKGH
# TUBB1 N371S C terminus, GAL4-AD prey (Q9H4B7, form named): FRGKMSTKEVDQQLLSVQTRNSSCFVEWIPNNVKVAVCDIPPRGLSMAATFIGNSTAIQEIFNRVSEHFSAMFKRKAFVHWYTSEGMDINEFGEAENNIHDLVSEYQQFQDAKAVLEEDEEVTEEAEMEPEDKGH
# TUBB1 S362K C terminus, GAL4-AD prey (Q9H4B7, form named): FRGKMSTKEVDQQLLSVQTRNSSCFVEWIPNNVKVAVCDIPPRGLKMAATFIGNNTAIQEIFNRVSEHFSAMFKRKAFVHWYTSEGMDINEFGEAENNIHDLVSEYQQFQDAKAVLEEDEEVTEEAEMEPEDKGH
# TUBB2A C terminus (Phe-317 to the stop codon), GAL4-AD prey (Q13885, residues 317-445): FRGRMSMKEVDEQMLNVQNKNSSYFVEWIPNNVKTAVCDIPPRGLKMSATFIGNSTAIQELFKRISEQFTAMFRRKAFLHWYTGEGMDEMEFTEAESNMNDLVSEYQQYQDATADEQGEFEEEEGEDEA
# TUBB2A S364A C terminus, GAL4-AD prey (Q13885, form named): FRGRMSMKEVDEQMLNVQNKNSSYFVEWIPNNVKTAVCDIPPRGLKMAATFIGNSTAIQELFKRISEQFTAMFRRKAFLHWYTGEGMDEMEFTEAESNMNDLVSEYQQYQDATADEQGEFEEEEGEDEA
# TUBB2B C terminus (Phe-317 to the stop codon), GAL4-AD prey (Q9BVA1, residues 317-445): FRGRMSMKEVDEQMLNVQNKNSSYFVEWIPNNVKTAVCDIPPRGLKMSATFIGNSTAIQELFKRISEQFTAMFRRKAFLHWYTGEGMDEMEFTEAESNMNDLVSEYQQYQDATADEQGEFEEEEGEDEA
# TUBB2B S364A C terminus, GAL4-AD prey (Q9BVA1, form named): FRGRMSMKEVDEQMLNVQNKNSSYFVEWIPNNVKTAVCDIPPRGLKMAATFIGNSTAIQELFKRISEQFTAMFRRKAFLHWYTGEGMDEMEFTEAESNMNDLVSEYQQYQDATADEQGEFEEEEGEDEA
# TUBB2C C terminus (Phe-317 to the stop codon), GAL4-AD prey (P68371, residues 317-445): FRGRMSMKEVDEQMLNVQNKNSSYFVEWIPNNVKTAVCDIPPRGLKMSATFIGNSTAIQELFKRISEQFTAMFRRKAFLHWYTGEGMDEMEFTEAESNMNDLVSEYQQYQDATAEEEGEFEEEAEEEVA
# TUBB2C S364A C terminus, GAL4-AD prey (P68371, form named): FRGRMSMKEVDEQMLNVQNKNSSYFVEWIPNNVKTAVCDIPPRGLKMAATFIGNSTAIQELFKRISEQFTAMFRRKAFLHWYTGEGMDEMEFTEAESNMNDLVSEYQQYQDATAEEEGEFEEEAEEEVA
# TUBB3 C terminus (Phe-317 to the stop codon), GAL4-AD prey (Q13509, residues 317-450): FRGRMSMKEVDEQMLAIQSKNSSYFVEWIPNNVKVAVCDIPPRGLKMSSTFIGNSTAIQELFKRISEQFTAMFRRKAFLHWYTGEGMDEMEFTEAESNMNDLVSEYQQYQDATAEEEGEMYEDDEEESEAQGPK
# TUBB3 S364A C terminus, GAL4-AD prey (Q13509, form named): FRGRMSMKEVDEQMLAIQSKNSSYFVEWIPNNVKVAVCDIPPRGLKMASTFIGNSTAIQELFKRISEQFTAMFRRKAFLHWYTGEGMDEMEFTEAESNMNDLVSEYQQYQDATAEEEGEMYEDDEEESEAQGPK
# TUBB6 C terminus (Phe-317 to the stop codon), GAL4-AD prey (Q9BUF5, residues 317-446): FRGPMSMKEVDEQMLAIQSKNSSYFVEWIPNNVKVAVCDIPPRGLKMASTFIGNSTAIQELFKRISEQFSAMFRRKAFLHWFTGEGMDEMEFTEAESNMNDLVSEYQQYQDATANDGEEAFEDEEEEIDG
# TUBB6 A364S C terminus, GAL4-AD prey (Q9BUF5, form named): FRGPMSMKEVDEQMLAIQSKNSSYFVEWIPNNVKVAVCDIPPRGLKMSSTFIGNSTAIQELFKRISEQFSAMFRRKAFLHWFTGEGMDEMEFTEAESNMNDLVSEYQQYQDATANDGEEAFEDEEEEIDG
# TUBB6 K362S C terminus, GAL4-AD prey (Q9BUF5, form named): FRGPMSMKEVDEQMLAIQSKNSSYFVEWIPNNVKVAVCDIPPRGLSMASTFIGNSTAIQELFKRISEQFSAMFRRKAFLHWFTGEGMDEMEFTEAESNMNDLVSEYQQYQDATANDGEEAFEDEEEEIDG
# TUBB6 P320R C terminus, GAL4-AD prey (Q9BUF5, form named): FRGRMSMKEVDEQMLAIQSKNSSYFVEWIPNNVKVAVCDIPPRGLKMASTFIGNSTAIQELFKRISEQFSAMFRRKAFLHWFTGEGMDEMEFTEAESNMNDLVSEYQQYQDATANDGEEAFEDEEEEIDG
# TUBB6 P320R/A364S C terminus, GAL4-AD prey (Q9BUF5, form named): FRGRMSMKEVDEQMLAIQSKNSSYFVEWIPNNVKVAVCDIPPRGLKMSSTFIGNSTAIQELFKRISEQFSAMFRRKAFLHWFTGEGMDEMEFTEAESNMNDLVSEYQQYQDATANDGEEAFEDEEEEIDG
# TUBB6 P320R/K362S C terminus, GAL4-AD prey (Q9BUF5, form named): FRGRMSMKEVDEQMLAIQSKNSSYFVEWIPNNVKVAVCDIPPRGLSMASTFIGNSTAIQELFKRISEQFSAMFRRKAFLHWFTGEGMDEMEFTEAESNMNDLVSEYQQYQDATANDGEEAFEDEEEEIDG
# These are yes or no findings as the source states them, for the method shown. A result given as binding can be weak or reduced; the word gives no strength. For some assays here: In cells and extracts the contact can be indirect.
# Assays:
# [1] = molecular target: LRRK2 RocCOR tandem domain (LexA-BD bait, wild type) (human) (UniProt Q5S007); assay: two-hybrid; yeast L40, LexA-BD baits and GAL4-AD preys; selection without Leu, Trp, His with 0.5 mM 3-amino-1,2,4-triazole, 30 °C 3-6 days; semiquantitative LacZ freeze-fracture assays
# [2] = molecular target: LRRK2 RocCOR tandem domain (LexA-BD bait, wild type) (human) (UniProt Q5S007); assay: two-hybrid; screen of a human whole brain cDNA library with a LRRK2 RocCOR domain bait
# [3] = molecular target: LRRK2 RocCOR tandem domain (LexA-BD bait, wild type) (human) (UniProt Q5S007); assay: two-hybrid; quantitative YTH (Q-YTH): chlorophenol-red-β-D-galactopyranoside colour change at 540 nm, background (bait + empty pACT2) subtracted, normalised to wild-type RocCOR = 100%
# [4] = molecular target: FLAG-tagged TUBB4 C terminus (human) (UniProt P04350); assay: co-IP; HEK293 cells transfected with FLAG-β-tubulin and myc-LRRK2 constructs; lysate on anti-FLAG M2 affinity gel overnight at 4 °C, elution with 3xFLAG peptide, anti-myc blot
Substance,binding [1],other results
TUBA1C (yeast two-hybrid construct) (from UniProt Q9BQE3 1-449),no binding,
TUBA4A (yeast two-hybrid construct) (from UniProt P68366 1-448),no binding,
"TUBB1 C terminus (Phe-317 to the stop codon), GAL4-AD prey (from UniProt Q9H4B7 317-451) (domain or fragment)",no binding,
"TUBB1 N371S C terminus, GAL4-AD prey (from UniProt Q9H4B7 317-451) (domain or fragment)",no binding,
"TUBB1 S362K C terminus, GAL4-AD prey (from UniProt Q9H4B7 317-451) (domain or fragment)",binds,
"TUBB2A C terminus (Phe-317 to the stop codon), GAL4-AD prey (from UniProt Q13885 317-445) (domain or fragment)",no binding,
"TUBB2A S364A C terminus, GAL4-AD prey (from UniProt Q13885 317-445) (domain or fragment)",binds,
"TUBB2B C terminus (Phe-317 to the stop codon), GAL4-AD prey (from UniProt Q9BVA1 317-445) (domain or fragment)",no binding,
"TUBB2B S364A C terminus, GAL4-AD prey (from UniProt Q9BVA1 317-445) (domain or fragment)",binds,
"TUBB2C C terminus (Phe-317 to the stop codon), GAL4-AD prey (from UniProt P68371 317-445) (domain or fragment)",no binding,
"TUBB2C S364A C terminus, GAL4-AD prey (from UniProt P68371 317-445) (domain or fragment)",binds,
"TUBB3 C terminus (Phe-317 to the stop codon), GAL4-AD prey (from UniProt Q13509 317-450) (domain or fragment)",no binding,
"TUBB3 S364A C terminus, GAL4-AD prey (from UniProt Q13509 317-450) (domain or fragment)",binds,
"TUBB4 A364D C terminus, GAL4-AD prey (from UniProt P04350 317-444) (domain or fragment)",no binding,
"TUBB4 A364E C terminus, GAL4-AD prey (from UniProt P04350 317-444) (domain or fragment)",no binding,
"TUBB4 A364S C terminus, GAL4-AD prey (from UniProt P04350 317-444) (domain or fragment)",no binding,
"TUBB4 C terminus (Phe-317 to Ala-444), GAL4-AD prey (from UniProt P04350 317-444) (domain or fragment)",binds,binding [2]: binds; binding [3]: binds
"TUBB6 A364S C terminus, GAL4-AD prey (from UniProt Q9BUF5 317-446) (domain or fragment)",binds,
"TUBB6 C terminus (Phe-317 to the stop codon), GAL4-AD prey (from UniProt Q9BUF5 317-446) (domain or fragment)",binds,
"TUBB6 K362S C terminus, GAL4-AD prey (from UniProt Q9BUF5 317-446) (domain or fragment)",binds,
"TUBB6 P320R C terminus, GAL4-AD prey (from UniProt Q9BUF5 317-446) (domain or fragment)",binds,
"TUBB6 P320R/A364S C terminus, GAL4-AD prey (from UniProt Q9BUF5 317-446) (domain or fragment)",no binding,
"TUBB6 P320R/K362S C terminus, GAL4-AD prey (from UniProt Q9BUF5 317-446) (domain or fragment)",no binding,
myc-tagged LRRK2 RocCOR domain (from UniProt Q5S007) (domain or fragment),,binding [4]: binds
